PubChem BioAssay AID1053208 | Peter MacCallum Cancer Centre | 2014
Test: 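Genes whose silencing cuts survival of bone tumour cells only with doxorubicin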 (primary screen). Cells: mouse osteosarcoma cells, early-passage culture from an engineered mouse model of fibroblastic bone tumour. Reagents: siRNA pool against mouse genes, 40 nM. Time to read-out: about 120 h (48 h before drug, then 72 h with drug). Challenge: doxorubicin 100 nM for 72 h, roughly 30-40% inhibitory dose. Read-out: 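Viability read as ATP luminescence after 72 h of 100 nM doxorubicin or none, duplicate wells averaged, scaled to non-targeting siRNA, then expressed as robust z-scores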. Reading the numbers: viability z-score with doxorubicin and doxorubicin viability vs non-targeting: higher = more viable cells under doxorubicin; viability z-score without drug: higher = more viable cells with knock-down alone; z-score of drug to no-drug ratio: higher = less drug sensitisation by knock-down. Call rule: 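a pool counts as active when its viability z-score with doxorubicin is -2 or below and its z-score without drug lies between -2 and 2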.
Here is an unselected part of about 17,000 reagents. Over the whole deposit, 788 (4.7%) got an active call. 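Calls rest on z-score classes alone; an extra cut-off of viability at most 70% of control was not applied to them.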 A number with no mark means an inactive call. Reagents against one gene are numbered here.

Target gene | pool no. | combined z-score class | viability z-score with doxorubicin | viability z-score without drug | z-score of drug to no-drug ratio | doxorubicin viability vs non-targeting
Or13c25 (olfactory receptor family 13 subfamily C member 25) | 1 | no change with or without drug | -0.11 | -0.17 | 0.11 | 0.93
Or4d2 (olfactory receptor family 4 subfamily D member 2) | 1 | no change with or without drug | -0.9 | -1.85 | 0.45 | 0.86
Pomt1 (protein-O-mannosyltransferase 1) | 1 | no change with or without drug | 0.9 | 1.35 | 0.11 | 1.02
Itga7 (integrin alpha 7) | 1 | no change with or without drug | 0.22 | -0.51 | 0.67 | 0.96
C1qtnf6 (C1q and tumor necrosis factor related protein 6) | 1 | no change with or without drug | 0.45 | 0.84 | 0 | 0.98
Or5a1 (olfactory receptor family 5 subfamily A member 1) | 1 | no change with or without drug | -0.11 | 0.51 | -0.34 | 0.93
Aldh3b3 (aldehyde dehydrogenase 3 family, member B3) | 1 | high cell count without drug only | 0 | 2.02 | -1.12 | 0.94
Aldh3b3 (aldehyde dehydrogenase 3 family, member B3) | 2 | no change with or without drug | -0.34 | -0.84 | 0.34 | 0.91
Col2a1 (collagen, type II, alpha 1) | 1 | no change with or without drug | -0.67 | 1.01 | -1.24 | 0.88
Or6z3 (olfactory receptor family 6 subfamily Z member 3) | 1 | no change with or without drug | -0.9 | 0.67 | -1.24 | 0.86
Clec2i (C-type lectin domain family 2, member i) | 1 | no change with or without drug | 1.8 | 1.52 | 0.9 | 1.1
Icam5 (intercellular adhesion molecule 5, telencephalin) | 1 | no change with or without drug | 0 | -0.17 | 0.22 | 0.94
5830411J07Rik (RIKEN cDNA 5830411J07 gene) | 1 | no change with or without drug | 0.79 | -0.84 | 1.57 | 1.01
Tmed5 (transmembrane p24 trafficking protein 5) | 1 | no change with or without drug | 1.01 | 0.34 | 0.9 | 1.03
Tomm70a (translocase of outer mitochondrial membrane 70A) | 1 | no change with or without drug | 0.11 | 0.51 | -0.11 | 0.95
Tnfrsf22 (tumor necrosis factor receptor superfamily, member 22) | 1 | no change with or without drug | 0 | 0.51 | -0.22 | 0.94
Tnfrsf22 (tumor necrosis factor receptor superfamily, member 22) | 2 | no change with or without drug | -0.56 | -1.52 | 0.56 | 0.89
Prim1 (DNA primase, p49 subunit) | 1 | no change with or without drug | 0.9 | 1.18 | 0.22 | 1.02
Kri1 (KRI1 homolog) | 1 | no change with or without drug | 0 | -0.84 | 0.67 | 0.94
Or5b99 (olfactory receptor family 5 subfamily B member 99) | 1 | no change with or without drug | -1.12 | -0.84 | -0.56 | 0.84
Pih1d1 (PIH1 domain containing 1) | 1 | no change with or without drug | 1.12 | 1.18 | 0.45 | 1.04
Fem1b (fem 1 homolog b) | 1 | no change with or without drug | -0.67 | -0.51 | -0.22 | 0.88
Tnfaip8l2 (tumor necrosis factor, alpha-induced protein 8-like 2) | 1 | high cell count without drug only | 0.79 | 2.53 | -0.67 | 1.01
Gsta1 (glutathione S-transferase, alpha 1 (Ya)) | 1 | no change with or without drug | -1.8 | 0.51 | -2.02 | 0.78
Mipol1 (mirror-image polydactyly 1) | 1 | no change with or without drug | -0.22 | 0.17 | -0.22 | 0.92
Gpx7 (glutathione peroxidase 7) | 1 | no change with or without drug | 0.9 | -0.17 | 1.24 | 1.02
Cdk6 (cyclin dependent kinase 6) | 1 | no change with or without drug | 0.67 | -0.84 | 1.46 | 1
Nog (noggin) | 1 | no change with or without drug | 1.57 | -0.34 | 2.02 | 1.08
Lactb (lactamase, beta) | 1 | no change with or without drug | 0 | 0.67 | -0.34 | 0.94
Nras (Nras proto-oncogene, GTPase) | 1 | no change with or without drug | 0.22 | -0.17 | 0.45 | 0.96
Slc5a3 | 1 | low cell count with doxorubicin only (active) | -2.02 | -0.51 | -1.69 | 0.76
Dennd6a (DENN domain containing 6A) | 1 | no change with or without drug | 0.67 | -0.17 | 0.9 | 1
Tcl1b1 (T cell leukemia/lymphoma 1B, 1) | 1 | low cell count without drug only | -1.46 | -2.19 | 0.11 | 0.81
Ubl4b (ubiquitin-like 4B) | 1 | high cell count without drug only | -0.11 | 2.53 | -1.46 | 0.93

5 of these entries in another layout:
{"Target gene":"Kri1 (KRI1 homolog)","pool no.":1,"combined z-score class":"no change with or without drug","viability z-score with doxorubicin":0,"viability z-score without drug":-0.84,"z-score of drug to no-drug ratio":0.67,"doxorubicin viability vs non-targeting":0.94}
{"Target gene":"Or5b99 (olfactory receptor family 5 subfamily B member 99)","pool no.":1,"combined z-score class":"no change with or without drug","viability z-score with doxorubicin":-1.12,"viability z-score without drug":-0.84,"z-score of drug to no-drug ratio":-0.56,"doxorubicin viability vs non-targeting":0.84}
{"Target gene":"Pih1d1 (PIH1 domain containing 1)","pool no.":1,"combined z-score class":"no change with or without drug","viability z-score with doxorubicin":1.12,"viability z-score without drug":1.18,"z-score of drug to no-drug ratio":0.45,"doxorubicin viability vs non-targeting":1.04}
{"Target gene":"Fem1b (fem 1 homolog b)","pool no.":1,"combined z-score class":"no change with or without drug","viability z-score with doxorubicin":-0.67,"viability z-score without drug":-0.51,"z-score of drug to no-drug ratio":-0.22,"doxorubicin viability vs non-targeting":0.88}
{"Target gene":"Tnfaip8l2 (tumor necrosis factor, alpha-induced protein 8-like 2)","pool no.":1,"combined z-score class":"high cell count without drug only","viability z-score with doxorubicin":0.79,"viability z-score without drug":2.53,"z-score of drug to no-drug ratio":-0.67,"doxorubicin viability vs non-targeting":1.01}
